Source: paper PMC4424400
No constants are given. Whether binding was seen depends on the method and setting. In cells and extracts the contact can be indirect. These calls come from enrichment with a bait or labelling near it, and not all partners need be listed.

By UniProt entry, the sequences of proteins in these tests, tags left out. Residues count along the entry.
UniProt P04775: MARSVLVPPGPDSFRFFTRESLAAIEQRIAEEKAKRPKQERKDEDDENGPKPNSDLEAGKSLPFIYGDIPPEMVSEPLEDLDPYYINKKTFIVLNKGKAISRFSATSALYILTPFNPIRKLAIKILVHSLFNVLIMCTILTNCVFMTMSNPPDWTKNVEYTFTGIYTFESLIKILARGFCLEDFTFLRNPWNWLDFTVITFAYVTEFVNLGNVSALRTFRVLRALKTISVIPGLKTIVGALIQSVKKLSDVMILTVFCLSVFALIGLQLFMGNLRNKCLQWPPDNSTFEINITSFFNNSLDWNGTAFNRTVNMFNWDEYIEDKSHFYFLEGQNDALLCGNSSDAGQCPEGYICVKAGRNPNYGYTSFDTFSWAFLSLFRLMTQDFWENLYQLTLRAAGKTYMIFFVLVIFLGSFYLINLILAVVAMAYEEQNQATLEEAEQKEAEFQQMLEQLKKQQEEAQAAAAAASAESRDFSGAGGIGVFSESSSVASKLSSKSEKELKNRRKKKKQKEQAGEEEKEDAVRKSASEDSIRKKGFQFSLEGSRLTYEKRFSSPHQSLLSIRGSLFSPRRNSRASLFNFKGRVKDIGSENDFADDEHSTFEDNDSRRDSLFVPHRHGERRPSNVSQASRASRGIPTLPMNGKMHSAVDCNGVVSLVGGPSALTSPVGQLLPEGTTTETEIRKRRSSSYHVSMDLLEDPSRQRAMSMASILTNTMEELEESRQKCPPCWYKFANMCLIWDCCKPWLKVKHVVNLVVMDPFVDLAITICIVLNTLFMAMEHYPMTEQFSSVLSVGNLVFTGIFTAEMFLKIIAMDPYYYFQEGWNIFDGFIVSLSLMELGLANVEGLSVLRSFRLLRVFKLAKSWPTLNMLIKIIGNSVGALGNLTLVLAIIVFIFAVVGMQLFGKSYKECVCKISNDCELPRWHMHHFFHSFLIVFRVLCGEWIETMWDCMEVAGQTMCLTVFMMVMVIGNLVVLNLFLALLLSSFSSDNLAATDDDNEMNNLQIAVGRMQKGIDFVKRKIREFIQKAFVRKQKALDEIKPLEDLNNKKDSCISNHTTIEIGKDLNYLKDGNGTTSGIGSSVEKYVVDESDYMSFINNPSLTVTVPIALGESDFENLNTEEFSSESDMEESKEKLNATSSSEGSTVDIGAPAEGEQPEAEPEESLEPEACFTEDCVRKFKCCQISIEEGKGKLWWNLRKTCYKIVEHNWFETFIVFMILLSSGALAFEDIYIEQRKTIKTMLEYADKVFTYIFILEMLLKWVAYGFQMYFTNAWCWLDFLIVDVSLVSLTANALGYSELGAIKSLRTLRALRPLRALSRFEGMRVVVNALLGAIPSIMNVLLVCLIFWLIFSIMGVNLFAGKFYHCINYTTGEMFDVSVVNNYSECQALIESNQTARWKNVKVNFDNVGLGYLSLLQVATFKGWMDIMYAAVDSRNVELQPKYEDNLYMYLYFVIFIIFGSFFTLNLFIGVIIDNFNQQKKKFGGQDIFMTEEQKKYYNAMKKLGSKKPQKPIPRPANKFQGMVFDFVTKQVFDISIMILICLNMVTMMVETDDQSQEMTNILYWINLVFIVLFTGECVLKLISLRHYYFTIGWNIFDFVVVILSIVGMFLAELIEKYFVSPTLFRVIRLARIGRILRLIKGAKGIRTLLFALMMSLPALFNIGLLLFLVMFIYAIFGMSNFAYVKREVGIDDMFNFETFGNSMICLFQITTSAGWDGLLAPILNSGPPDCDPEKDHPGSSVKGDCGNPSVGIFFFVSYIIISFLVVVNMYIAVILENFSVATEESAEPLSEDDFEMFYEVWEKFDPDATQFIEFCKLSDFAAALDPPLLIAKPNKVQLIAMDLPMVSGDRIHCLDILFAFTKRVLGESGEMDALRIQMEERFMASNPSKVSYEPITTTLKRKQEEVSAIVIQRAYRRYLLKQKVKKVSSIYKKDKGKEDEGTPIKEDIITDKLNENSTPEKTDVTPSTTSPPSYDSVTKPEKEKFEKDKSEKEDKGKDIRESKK
UniProt P68511: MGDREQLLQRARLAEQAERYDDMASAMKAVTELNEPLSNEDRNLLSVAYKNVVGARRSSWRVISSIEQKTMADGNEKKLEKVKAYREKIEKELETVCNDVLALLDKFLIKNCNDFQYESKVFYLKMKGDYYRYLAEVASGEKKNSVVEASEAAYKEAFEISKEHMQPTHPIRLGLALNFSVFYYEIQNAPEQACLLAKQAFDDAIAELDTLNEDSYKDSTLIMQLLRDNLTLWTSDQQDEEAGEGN
UniProt O70511: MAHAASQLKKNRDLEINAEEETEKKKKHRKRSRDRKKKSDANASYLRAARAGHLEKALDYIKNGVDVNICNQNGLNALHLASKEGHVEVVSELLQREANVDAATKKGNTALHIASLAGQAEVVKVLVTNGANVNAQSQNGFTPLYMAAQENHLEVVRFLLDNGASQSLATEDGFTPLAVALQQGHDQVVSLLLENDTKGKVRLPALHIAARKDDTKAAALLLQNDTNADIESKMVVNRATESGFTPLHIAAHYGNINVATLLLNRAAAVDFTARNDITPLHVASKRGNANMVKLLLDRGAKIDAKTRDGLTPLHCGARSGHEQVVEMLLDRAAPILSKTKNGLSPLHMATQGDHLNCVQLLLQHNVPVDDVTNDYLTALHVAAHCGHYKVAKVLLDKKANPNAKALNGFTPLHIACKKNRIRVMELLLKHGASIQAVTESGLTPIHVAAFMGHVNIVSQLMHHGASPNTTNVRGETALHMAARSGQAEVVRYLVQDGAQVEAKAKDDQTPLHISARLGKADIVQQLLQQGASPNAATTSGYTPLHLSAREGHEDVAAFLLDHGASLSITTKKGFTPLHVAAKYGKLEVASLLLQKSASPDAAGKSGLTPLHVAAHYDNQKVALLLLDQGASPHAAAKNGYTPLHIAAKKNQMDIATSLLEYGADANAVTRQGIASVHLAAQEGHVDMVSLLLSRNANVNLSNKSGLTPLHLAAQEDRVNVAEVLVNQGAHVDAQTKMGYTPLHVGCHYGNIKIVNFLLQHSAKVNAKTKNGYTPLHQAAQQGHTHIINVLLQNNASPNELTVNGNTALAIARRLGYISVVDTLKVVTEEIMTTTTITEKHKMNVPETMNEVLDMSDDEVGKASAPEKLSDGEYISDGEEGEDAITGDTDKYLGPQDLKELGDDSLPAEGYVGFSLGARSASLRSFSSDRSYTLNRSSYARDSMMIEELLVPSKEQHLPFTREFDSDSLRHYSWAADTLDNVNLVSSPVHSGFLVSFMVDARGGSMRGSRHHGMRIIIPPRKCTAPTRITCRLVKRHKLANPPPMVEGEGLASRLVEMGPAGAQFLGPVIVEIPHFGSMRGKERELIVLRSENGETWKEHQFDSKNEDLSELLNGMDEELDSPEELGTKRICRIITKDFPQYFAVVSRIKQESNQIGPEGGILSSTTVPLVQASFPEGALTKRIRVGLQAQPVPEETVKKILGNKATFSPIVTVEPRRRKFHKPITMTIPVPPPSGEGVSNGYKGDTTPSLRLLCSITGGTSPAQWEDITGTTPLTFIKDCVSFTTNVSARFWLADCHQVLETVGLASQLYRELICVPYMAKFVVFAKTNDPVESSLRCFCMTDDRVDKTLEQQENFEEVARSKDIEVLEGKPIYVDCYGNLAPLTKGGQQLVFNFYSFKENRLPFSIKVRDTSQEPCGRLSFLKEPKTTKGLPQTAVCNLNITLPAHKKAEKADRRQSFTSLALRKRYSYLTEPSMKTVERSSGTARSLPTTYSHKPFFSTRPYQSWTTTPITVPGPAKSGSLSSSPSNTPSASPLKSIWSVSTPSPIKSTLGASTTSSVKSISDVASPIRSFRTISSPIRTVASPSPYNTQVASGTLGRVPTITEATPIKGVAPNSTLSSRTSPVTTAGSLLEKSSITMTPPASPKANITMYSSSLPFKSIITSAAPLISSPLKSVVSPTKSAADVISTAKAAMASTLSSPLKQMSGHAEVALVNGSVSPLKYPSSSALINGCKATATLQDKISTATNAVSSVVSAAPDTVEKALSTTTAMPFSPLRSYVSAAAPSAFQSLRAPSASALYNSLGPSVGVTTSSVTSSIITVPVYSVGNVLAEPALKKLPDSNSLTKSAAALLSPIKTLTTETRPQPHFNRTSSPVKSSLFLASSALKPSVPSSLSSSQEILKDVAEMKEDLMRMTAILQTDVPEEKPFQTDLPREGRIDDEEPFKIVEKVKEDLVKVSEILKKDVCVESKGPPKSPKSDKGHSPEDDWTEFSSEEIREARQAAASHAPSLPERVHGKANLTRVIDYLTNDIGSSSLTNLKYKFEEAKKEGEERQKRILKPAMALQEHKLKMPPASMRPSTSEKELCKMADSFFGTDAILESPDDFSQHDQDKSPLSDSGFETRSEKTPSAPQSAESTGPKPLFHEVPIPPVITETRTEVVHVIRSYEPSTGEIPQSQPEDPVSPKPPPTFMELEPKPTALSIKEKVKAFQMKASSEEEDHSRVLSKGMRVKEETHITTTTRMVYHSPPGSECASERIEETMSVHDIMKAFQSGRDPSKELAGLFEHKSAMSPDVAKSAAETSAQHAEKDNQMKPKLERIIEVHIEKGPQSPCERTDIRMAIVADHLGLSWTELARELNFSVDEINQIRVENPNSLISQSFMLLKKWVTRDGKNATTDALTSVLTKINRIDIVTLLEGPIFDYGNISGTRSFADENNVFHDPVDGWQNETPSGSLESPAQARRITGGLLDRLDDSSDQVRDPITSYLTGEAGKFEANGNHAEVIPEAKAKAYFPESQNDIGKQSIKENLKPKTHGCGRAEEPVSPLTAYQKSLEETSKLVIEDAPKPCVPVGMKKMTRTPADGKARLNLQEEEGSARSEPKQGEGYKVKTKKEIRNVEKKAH
UniProt P11275: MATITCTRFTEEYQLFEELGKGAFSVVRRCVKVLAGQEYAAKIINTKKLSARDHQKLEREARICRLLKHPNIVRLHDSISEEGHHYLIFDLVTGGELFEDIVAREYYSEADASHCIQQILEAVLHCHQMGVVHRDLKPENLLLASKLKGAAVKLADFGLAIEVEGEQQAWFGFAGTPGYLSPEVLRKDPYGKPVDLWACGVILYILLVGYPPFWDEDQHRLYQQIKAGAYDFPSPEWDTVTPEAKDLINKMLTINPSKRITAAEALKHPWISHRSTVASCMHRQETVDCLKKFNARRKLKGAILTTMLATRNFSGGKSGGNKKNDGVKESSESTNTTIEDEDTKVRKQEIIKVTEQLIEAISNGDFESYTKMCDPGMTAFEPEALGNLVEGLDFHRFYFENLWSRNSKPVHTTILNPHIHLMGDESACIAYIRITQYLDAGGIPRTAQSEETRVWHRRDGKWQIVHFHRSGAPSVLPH
UniProt P08413: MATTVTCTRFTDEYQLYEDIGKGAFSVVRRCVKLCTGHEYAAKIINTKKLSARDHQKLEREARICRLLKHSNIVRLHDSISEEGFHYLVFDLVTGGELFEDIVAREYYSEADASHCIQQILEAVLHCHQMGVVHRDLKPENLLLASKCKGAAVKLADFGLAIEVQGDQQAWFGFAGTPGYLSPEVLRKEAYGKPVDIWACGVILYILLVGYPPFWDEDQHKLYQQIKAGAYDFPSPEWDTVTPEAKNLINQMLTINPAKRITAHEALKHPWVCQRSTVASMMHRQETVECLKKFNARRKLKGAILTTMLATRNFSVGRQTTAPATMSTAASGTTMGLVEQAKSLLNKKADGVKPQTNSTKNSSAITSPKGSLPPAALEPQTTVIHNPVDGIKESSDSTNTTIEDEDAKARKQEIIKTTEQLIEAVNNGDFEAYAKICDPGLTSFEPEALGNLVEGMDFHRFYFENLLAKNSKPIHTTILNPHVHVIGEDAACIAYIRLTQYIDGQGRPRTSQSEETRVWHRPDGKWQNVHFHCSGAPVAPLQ
UniProt P54900, residues 30-215: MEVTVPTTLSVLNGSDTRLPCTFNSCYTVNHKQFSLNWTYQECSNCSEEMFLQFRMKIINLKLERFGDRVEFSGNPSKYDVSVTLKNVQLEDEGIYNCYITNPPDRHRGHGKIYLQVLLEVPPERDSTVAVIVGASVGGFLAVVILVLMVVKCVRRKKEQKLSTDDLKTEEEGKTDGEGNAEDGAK

Biological target: Voltage-gated sodium channel 1.2 (Nav1.2) alpha subunit, native, from rat brain (rat (endogenous in adult rat brain)) (UniProt P04775)
Assay: affinity purification with mass spectrometry; anti-Nav1.2 monoclonal K69/3 immobilised on Protein-A/G beads; adult rat brain crude membrane extract in 1% Triton X-100, 0.15 M NaCl, 1 mM EDTA, 10 mM Tris-HCl pH 8.0; overnight at 4 °C; control mouse IgG; label-free quantitative nanoLC-MS/MS

binding	Molecule
binds	Fibroblast growth factor 12 (FGF12), native, from rat brain (protein, UniProt P61150 1-243) MAAAIASSLIRQKRQARESNSDRVSASKRRSSPSKDGRSLCERHVLGVFSKVRFCSGRKRPVRRRPEPQLKGIVTRLFSQQGYFLQMHPDGTIDGTKDENSDYTLFNLIPVGLRVVAIQGVKASLYVAMNGEGYLYSSDVFTPECKFKESVFENYYVIYSSTLYRQQESGRAWFLGLNKEGQIMKGNRVKKTKPSSHFVPKPIEVCMYREPSLHEIGEKQGRSRKSSGTPTMNGGKVVNQDST

Biological target: Voltage-gated sodium channel 1.2 (Nav1.2) alpha subunit, native, from rat brain (rat (endogenous in adult rat brain)) (UniProt P04775)
Assay: as above
Remark: another data set of the same source

binding	Molecule
binds	14-3-3η, native, from rat brain (from UniProt P68511 1-246)
binds	Ankyrin-3 (Ankyrin-G), native, from rat brain (from UniProt O70511 1-2622)
binds	Ca2+/calmodulin-dependent protein kinase II alpha (CaMKII-α), native, from rat brain (from UniProt P11275 1-478) (enzyme)
binds	Ca2+/calmodulin-dependent protein kinase II beta (CaMKII-β), native, from rat brain (from UniProt P08413 1-542) (enzyme)
binds	Nav channel beta2 subunit, native, from rat brain (from UniProt P54900 30-215)
